We go through two substances from PMC11925928.

Chains of the proteins cited; added tags and fusions are not shown. Residues count along the entry.
UniProt Q86YZ3: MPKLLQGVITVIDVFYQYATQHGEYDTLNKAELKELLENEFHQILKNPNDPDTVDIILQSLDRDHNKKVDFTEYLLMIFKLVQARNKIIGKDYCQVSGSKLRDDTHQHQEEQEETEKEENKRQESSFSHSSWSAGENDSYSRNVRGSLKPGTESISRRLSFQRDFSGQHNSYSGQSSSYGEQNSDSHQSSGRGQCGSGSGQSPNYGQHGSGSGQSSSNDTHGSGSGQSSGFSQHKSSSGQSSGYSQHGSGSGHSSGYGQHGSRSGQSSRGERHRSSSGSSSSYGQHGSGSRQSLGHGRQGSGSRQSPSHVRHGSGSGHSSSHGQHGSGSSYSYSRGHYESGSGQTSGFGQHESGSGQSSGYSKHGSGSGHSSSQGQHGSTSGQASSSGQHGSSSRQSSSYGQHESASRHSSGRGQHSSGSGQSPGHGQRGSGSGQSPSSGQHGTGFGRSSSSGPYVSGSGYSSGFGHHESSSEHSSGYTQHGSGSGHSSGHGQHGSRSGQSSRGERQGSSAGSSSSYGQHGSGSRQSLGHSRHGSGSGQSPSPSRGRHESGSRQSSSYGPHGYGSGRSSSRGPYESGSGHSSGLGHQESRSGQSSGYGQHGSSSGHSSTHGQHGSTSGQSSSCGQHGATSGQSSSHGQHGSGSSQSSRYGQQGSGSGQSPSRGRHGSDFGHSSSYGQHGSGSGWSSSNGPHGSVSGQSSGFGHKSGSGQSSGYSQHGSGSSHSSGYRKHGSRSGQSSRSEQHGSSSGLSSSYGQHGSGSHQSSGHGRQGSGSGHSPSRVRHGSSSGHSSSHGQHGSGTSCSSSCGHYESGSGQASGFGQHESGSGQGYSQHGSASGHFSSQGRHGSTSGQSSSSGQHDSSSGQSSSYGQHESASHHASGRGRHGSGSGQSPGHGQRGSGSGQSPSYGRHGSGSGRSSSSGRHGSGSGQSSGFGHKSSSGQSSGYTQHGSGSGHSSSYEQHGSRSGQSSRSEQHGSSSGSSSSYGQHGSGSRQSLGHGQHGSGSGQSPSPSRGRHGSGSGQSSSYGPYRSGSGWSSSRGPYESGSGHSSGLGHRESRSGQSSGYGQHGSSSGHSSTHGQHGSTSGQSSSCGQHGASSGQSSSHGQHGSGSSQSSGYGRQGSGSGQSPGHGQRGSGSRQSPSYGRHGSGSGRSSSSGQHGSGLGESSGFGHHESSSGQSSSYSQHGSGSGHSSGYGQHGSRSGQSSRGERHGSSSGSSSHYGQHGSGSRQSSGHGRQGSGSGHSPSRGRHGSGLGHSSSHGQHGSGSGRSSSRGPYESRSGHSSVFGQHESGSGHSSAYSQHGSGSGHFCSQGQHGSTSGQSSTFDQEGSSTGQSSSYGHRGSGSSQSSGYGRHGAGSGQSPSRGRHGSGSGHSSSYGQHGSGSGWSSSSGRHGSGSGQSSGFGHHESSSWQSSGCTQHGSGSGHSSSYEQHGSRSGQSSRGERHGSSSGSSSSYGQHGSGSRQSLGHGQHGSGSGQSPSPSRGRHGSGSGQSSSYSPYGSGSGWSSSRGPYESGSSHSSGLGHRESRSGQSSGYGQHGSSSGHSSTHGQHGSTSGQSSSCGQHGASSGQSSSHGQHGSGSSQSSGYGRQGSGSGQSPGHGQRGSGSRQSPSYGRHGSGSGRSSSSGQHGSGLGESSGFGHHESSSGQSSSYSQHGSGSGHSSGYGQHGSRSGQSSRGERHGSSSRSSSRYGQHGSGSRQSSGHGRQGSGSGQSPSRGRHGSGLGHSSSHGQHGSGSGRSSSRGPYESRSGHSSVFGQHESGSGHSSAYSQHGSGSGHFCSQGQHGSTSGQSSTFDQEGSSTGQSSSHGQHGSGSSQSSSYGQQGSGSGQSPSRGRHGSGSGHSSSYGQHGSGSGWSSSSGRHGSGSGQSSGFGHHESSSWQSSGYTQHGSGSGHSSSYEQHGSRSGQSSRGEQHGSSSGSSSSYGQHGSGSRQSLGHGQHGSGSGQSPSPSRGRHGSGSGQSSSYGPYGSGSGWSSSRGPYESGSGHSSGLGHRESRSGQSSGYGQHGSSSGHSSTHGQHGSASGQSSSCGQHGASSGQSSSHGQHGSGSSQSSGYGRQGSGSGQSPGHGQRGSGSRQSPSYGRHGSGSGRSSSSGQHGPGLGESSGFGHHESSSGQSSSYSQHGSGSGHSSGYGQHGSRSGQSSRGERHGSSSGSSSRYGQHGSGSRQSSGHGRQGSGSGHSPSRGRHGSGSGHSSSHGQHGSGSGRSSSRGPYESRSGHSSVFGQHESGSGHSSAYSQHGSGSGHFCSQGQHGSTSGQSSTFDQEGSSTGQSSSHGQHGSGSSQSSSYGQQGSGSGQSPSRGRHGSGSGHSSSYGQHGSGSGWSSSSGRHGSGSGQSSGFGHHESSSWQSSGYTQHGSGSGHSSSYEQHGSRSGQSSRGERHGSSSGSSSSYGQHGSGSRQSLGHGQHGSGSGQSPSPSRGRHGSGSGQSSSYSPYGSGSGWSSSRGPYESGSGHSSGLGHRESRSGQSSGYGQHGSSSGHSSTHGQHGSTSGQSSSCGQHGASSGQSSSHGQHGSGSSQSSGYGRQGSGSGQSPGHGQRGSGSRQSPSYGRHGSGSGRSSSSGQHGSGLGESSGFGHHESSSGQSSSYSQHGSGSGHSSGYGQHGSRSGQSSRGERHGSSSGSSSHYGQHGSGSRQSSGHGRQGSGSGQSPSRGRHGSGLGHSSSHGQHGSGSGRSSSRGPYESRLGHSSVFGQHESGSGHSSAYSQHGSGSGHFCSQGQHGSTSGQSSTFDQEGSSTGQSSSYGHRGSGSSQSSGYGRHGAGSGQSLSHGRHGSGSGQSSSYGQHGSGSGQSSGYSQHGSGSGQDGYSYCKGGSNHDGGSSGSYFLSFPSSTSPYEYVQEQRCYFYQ
UniProt P02545, residues 1-646: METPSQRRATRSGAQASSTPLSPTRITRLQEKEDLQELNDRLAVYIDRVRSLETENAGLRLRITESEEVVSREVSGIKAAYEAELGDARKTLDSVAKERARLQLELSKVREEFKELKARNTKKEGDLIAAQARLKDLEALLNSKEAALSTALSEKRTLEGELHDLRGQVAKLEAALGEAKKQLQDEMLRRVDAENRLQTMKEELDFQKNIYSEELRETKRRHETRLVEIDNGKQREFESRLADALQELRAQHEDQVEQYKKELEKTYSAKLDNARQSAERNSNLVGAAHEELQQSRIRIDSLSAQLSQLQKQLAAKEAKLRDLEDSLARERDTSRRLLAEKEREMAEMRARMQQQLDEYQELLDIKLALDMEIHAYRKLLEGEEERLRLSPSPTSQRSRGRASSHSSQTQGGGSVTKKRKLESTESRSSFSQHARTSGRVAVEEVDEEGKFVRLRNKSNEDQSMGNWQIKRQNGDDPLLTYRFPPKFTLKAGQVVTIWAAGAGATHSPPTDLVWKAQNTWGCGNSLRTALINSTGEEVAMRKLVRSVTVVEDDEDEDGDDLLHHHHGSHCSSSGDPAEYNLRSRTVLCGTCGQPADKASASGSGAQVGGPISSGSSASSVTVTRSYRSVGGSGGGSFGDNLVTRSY

No constants are given. Whether binding was seen depends on the method and setting. Binding seen in cells or lysates may run through a third protein. A yes stands for co-enrichment or nearness to the bait. Other partners may have been found.

This test deals with Cellular tumor antigen p53 (human (endogenous in HCT116)) (UniProt P04637). The experiment in a line: affinity purification with mass spectrometry; TF-chRDP: HCT116 cells (375 uM 5-FU for 9 h to activate p53; DMSO as control) dual cross-linked with 1% formaldehyde and 2 mM EGS; nuclei sonicated; endogenous p53 chromatin complexes immunoprecipitated overnight at 4°C with anti-p53 (sc-126) on Protein G beads; low salt, high salt and TE washes; on-bead trypsin digestion; nano LC-MS/MS, MaxQuant.

With Hornerin (from UniProt Q86YZ3 1-2850), the binding entry was “binds”.
Consider “Prelamin-A/C; Lamin-A/C (from UniProt P02545 1-646)”, for which the binding result is listed as “binds”.
